± gives the uncertainty stated by the source. Many of these values have a large error.
Assay: self-splicing fitness, log relative to wild type (ln ratio); higher = more splicing; Tetrahymena group I intron in knt gene, E. coli kanamycin selection, DiMSum; sequences stand for … in CUCUCU…GGAGGGAAAAGUUAUCAGGCAUGCACCUGGUAGCUAGUCUUUAAACCAAUAGAUUGCAUCGGUUUAAAAGGCAAGACCGUCAAAUUGCGGGAAAGGGGUCAACAGCCGUUCAGUACCAAGUCUCAGGGGAAACUUUGAGAUGGCCUUGCAAAGGGUAUGGUAAUAAGCUGACGGACAUGGUCCUAACCACGCAGCCAAGUCCUAAGUCAACAGAUCUUCUGUUGAUAUGGAUGCAGUUCACAGACUAAAUGUCGGUCGGGGAAGAUGUAUUCUUCUCAUAAGAUAUAGUCGGACCUCUCCUUAAUGGGAGCUAGCGGAUGAAGUGAUGCAACACUGGAGCCGCUGGGAACUAAUUUGUAUGCGAAAGUAUAUUGAUUAGUUUUGGAGUACUCGUGGUCG
How it was run: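 Fitness was computed with DiMSum as the error-weighted combination of replicate fold changes, kanamycin versus none, each normalised to wild type. The library randomised all eight intron nucleotides of the P1ex region, with the intron placed in the knt kanamycin-resistance gene on pET-22b(+) in E. coli BL21(DE3). Six replicate transformations were grown overnight at 37°C or 30°C on LB agar with or without 25 μg/mL kanamycin, plus 100 μg/mL carbenicillin, 50 μM IPTG and 0.2% rhamnose. Pooled colonies were amplicon-sequenced on an Illumina HiSeq 2500.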

Sequence	self-splicing fitness (ln) (37 °C)	self-splicing fitness (ln) (30 °C)
UCGCAGCAAUAUUACGAUUC	-2.77 ± 0.74	–
GUUCAGCAAUAUUACGGACG	-0.428 ± 0.11	-2.15 ± 0.11
UAGGAGCAAUAUUACGCUCU	–	-3.83 ± 1
AUUUAGCAAUAUUACGAGAG	–	-3.58 ± 0.74
CUCAAGCAAUAUUACGGCUA	–	-2.87 ± 0.62
UCUUAGCAAUAUUACGCGGU	-2.76 ± 0.26	-3.5 ± 0.2
GCGUAGCAAUAUUACGAGCC	-2.44 ± 0.77	–
AUCGAGCAAUAUUACGAUCA	–	-2.01 ± 0.54
UUCGAGCAAUAUUACGACAC	-2.36 ± 0.54	–
AAUCAGCAAUAUUACGCAUU	-0.498 ± 0.086	-1.1 ± 0.072
UCGGAGCAAUAUUACGGACU	-1.98 ± 1.1	-4.29 ± 1
ACGGAGCAAUAUUACGUGCA	–	-3.89 ± 0.52
CGAGAGCAAUAUUACGCUUU	–	-4.33 ± 1
CGUUAGCAAUAUUACGCACG	-2.63 ± 0.54	–
ACGGAGCAAUAUUACGAAUC	-2.64 ± 0.53	-3.65 ± 0.55
CAUCAGCAAUAUUACGCUGC	–	-5 ± 0.72
UUCUAGCAAUAUUACGAAAC	-1.64 ± 0.67	–
CAGUAGCAAUAUUACGGUCA	–	-2.24 ± 0.84
GCGUAGCAAUAUUACGCAAU	-3.11 ± 0.74	-4.66 ± 1
UGCGAGCAAUAUUACGGAAG	–	-4.67 ± 0.51
UUGGAGCAAUAUUACGGCCC	-1.9 ± 0.69	–
GUUGAGCAAUAUUACGCUCA	–	-2.94 ± 1.1
UGUGAGCAAUAUUACGACAC	-2.03 ± 0.81	-2.42 ± 1.2
CAGGAGCAAUAUUACGUCAU	–	-4.19 ± 1
UCUCAGCAAUAUUACGACCG	–	-0.974 ± 0.59

Twelve entries from above in another layout:
Sequence | self-splicing fitness (ln) (37 °C) | self-splicing fitness (ln) (30 °C)
AUUUAGCAAUAUUACGAGAG | – | -3.58 ± 0.74
CUCAAGCAAUAUUACGGCUA | – | -2.87 ± 0.62
UCUUAGCAAUAUUACGCGGU | -2.76 ± 0.26 | -3.5 ± 0.2
GCGUAGCAAUAUUACGAGCC | -2.44 ± 0.77 | –
AUCGAGCAAUAUUACGAUCA | – | -2.01 ± 0.54
UUCGAGCAAUAUUACGACAC | -2.36 ± 0.54 | –
AAUCAGCAAUAUUACGCAUU | -0.498 ± 0.086 | -1.1 ± 0.072
UCGGAGCAAUAUUACGGACU | -1.98 ± 1.1 | -4.29 ± 1
ACGGAGCAAUAUUACGUGCA | – | -3.89 ± 0.52
CGAGAGCAAUAUUACGCUUU | – | -4.33 ± 1
CGUUAGCAAUAUUACGCACG | -2.63 ± 0.54 | –
ACGGAGCAAUAUUACGAAUC | -2.64 ± 0.53 | -3.65 ± 0.55

More records:

Sequence	self-splicing fitness (ln) (37 °C)	self-splicing fitness (ln) (30 °C)
CGAUAGCAAUAUUACGGGCU	–	-4.87 ± 0.59
GUUCAGCAAUAUUACGGGCA	-1.11 ± 0.34	-2.05 ± 0.6
CAACAGCAAUAUUACGAAGA	-2.35 ± 0.17	-2.55 ± 0.17
ACUGAGCAAUAUUACGCGUA	-3.16 ± 0.28	-1.8 ± 0.15
CUGGAGCAAUAUUACGCUGU	–	-4.32 ± 0.59
CAAUAGCAAUAUUACGAACC	-0.234 ± 1.4	–
CAGGAGCAAUAUUACGUACC	-0.687 ± 1	–
AACUAGCAAUAUUACGAAAU	-0.94 ± 0.1	-2.01 ± 0.09
GGUGAGCAAUAUUACGUUAC	-0.718 ± 0.24	-3.12 ± 0.47
UUUAAGCAAUAUUACGCUAC	-3.41 ± 0.53	–
UUGGAGCAAUAUUACGAAUA	-2.1 ± 0.46	-2.94 ± 1.1
AAUAAGCAAUAUUACGCCAC	-3.26 ± 0.6	-3.1 ± 0.8
UCAAAGCAAUAUUACGAGGG	-1.03 ± 0.12	-2.11 ± 0.12
CAGAAGCAAUAUUACGAUCU	-0.995 ± 0.1	-1.88 ± 0.12
CAAGAGCAAUAUUACGAAAC	-2.54 ± 0.76	–
AUUGAGCAAUAUUACGCCUG	-2.5 ± 0.54	–
UGCUAGCAAUAUUACGCCCC	–	-1.42 ± 0.54
GCCCAGCAAUAUUACGUGGA	0.199 ± 0.076	-0.734 ± 0.063
GCGAAGCAAUAUUACGUUUC	-4.45 ± 0.72	–
CCUCAGCAAUAUUACGCCGC	-3.19 ± 0.52	–
UCUUAGCAAUAUUACGUGCC	–	-2.02 ± 0.9
CCUUAGCAAUAUUACGGGAC	-3.52 ± 0.52	–
AUCGAGCAAUAUUACGCUGC	-2.66 ± 0.75	–
AGCGAGCAAUAUUACGGAGC	–	-2.42 ± 1.2
UUCUAGCAAUAUUACGCUGG	-3.66 ± 0.73	-4.38 ± 0.46

From the supplement of paper PMC7877785
